From US7960377B2 (priority 2008, dated 2011)
Like-named read-outs stand apart in the source and are kept apart here. Some of these results come from one statement about several compounds together.

By UniProt entry, the sequences of proteins in these tests, tags left out.
UniProt P21554, whole entry: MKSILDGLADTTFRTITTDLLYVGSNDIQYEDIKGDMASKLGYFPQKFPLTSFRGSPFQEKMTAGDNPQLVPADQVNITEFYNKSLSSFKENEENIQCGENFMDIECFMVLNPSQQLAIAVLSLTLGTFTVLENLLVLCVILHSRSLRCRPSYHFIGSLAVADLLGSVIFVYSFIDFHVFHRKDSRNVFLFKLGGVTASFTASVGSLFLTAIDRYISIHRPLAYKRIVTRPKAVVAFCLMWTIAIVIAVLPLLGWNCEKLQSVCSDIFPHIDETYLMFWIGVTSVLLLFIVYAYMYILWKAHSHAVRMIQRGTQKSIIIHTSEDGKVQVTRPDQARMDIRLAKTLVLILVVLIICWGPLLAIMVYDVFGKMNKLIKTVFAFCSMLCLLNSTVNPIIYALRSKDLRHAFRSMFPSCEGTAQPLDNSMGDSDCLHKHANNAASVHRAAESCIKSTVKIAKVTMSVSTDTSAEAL
UniProt P34972, whole entry: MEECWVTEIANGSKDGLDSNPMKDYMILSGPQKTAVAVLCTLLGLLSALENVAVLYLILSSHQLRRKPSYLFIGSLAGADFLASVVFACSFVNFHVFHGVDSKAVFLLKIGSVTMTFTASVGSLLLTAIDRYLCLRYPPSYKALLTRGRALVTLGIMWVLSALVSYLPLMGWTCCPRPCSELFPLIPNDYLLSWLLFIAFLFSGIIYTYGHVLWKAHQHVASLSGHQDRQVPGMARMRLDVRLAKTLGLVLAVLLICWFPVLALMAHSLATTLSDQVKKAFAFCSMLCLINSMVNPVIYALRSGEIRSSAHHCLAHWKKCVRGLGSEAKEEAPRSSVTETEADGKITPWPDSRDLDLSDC

Key:
human CB1 receptor = human CB1 receptor (Homo sapiens, UniProt P21554); type: cell-based; conditions: read-out: EC50 values for human CB1 receptor, change in intracellular cAMP, CHO-K1 hCB1 cells
human CB2 receptor = human CB2 receptor (Homo sapiens, UniProt P34972); type: cell-based; conditions: read-out: EC50 values for human CB2 receptor, change in intracellular cAMP, CHO-K1 hCB2 cells
[1] = bin >300 nM-3 μM, units given in the value

CC(C)(C)NC(=O)c1cnc2c(c1)N(S(=O)(=O)N1CCCCC1)CCO2 [Example 2, N-tert-butyl-1-(piperidin-1-ylsulfonyl)-2,3-dihydro-1H-pyrido[2,3-b][1,4]oxazine-7-carboxamide]
EC50 (human CB1 receptor; bin in μM): 3 to 30 µM | EC50 (human CB2 receptor; EC50 bins in nM): 30 to 300 nM

CC(C)CNC(=O)c1cnc2c(c1)N(S(=O)(=O)c1ccc(F)cc1)CCO2 [Example 8, 1-(4-fluorophenyl-sulfonyl)-N-isobutyl-2,3-dihydro-1H-pyrido[2,3-b][1,4]oxazine-7-carboxamide]
EC50 (human CB1 receptor; bin in μM): 3 to 30 µM | EC50 (human CB2 receptor; EC50 bins in nM): 30 to 300 nM

O=C(NC1CCCC1)c1cnc2c(c1)N(S(=O)(=O)c1ccc(F)cc1)CCO2 [Example 10]
EC50 (human CB1 receptor; bin in μM): 3 to 30 µM | EC50 (human CB2 receptor; EC50 bins in nM): 30 to 300 nM

CC(C)(CO)NC(=O)c1cnc2c(c1)N(S(=O)(=O)c1ccc(C(F)(F)F)cc1)CCO2 [Example 39, N-(1-hydroxy-2-methyl-propan-2-yl)-1-(4-(trifluoromethyl)phenylsulf-onyl)-2,3-dihydro-1H-pyrido[2,3-b][1,4]oxazine-7-carboxamide]
EC50 (human CB1 receptor; bin in μM): 3 to 30 µM | EC50 (human CB2 receptor; EC50 bins in nM): 30 to 300 nM

CCN(C(=O)c1cnc2c(c1)N(S(=O)(=O)c1ccc(C(F)(F)F)cc1)CCO2)C(C)(C)C [Example 42, N-tert-butyl-N-ethyl-1-(4-(trifluoromethyl)phenylsulf-onyl)-2,3-dihydro-1H-pyrido[2,3-b][1,4]oxazine-7-carboxamide]
EC50 (human CB1 receptor; [1]): 0.3 to 3 µM | EC50 (human CB2 receptor; EC50 bins in nM): 30 to 300 nM

COCCN(C(=O)c1cnc2c(c1)N(S(=O)(=O)c1ccc(C(F)(F)F)cc1)CCO2)C(C)(C)C [Example 43, N-tert-butyl-N-(2-methoxyethyl)-1-(4-(trifluoromethyl)phenylsulf-onyl)-2,3-dihydro-1H-pyrido[2,3-b][1,4]oxazine-7-carboxamide]
EC50 (human CB1 receptor; [1]): 0.3 to 3 µM | EC50 (human CB2 receptor; EC50 bins in nM): 30 to 300 nM

CNC(=O)[C@@H](N(C)C(=O)c1cnc2c(c1)N(S(=O)(=O)c1ccc(F)cc1)CCO2)C(C)(C)C [Example 58, (S)-N-(3,3-dimethyl-1-(methylamino)-1-oxobutan-2-yl)-1-(4-fluorophenylsulfonyl)-N-methyl-2,3-dihydro-1H-pyrido[2,3-b][1,4]oxazine-7-carboxamide]
EC50 (human CB1 receptor; bin in μM): 3 to 30 µM | EC50 (human CB2 receptor; EC50 bins in nM): 30 to 300 nM

O=C(NC1(CO)CCCC1)c1cnc2c(c1)N(S(=O)(=O)c1ccc(C(F)(F)F)cc1)CCO2 [Example 67, N-(1-(hydroxymethyl)-cyclopentyl)-1-(4-(trifluoromethyl)phenylsulf-onyl)-2,3-dihydro-1H-pyrido[2,3-b][1,4]oxazine-7-carboxamide]
EC50 (human CB1 receptor; [1]): 0.3 to 3 µM | EC50 (human CB2 receptor; EC50 bins in nM): 30 to 300 nM

C[C@H]1CCCCN1C(=O)c1cnc2c(c1)N(S(=O)(=O)c1ccc(C(F)(F)F)cc1)CCO2 [Example 69, (S)-(2-methylpiperidin-1-yl)(1-(4-(trifluoromethyl)-phenylsulfonyl)-2,3-dihydro-1H-pyrido[2,3-b][1,4]oxazin-7-yl)-methanone]
EC50 (human CB1 receptor; bin in μM): 3 to 30 µM | EC50 (human CB2 receptor; EC50 bins in nM): 30 to 300 nM

CC(C)(CO)NC(=O)c1cnc2c(c1)N(S(=O)(=O)c1ccc(F)cc1F)CCO2 [Example 102, 1-(2,4-difluorophenylsulfonyl)-N-(1-hydroxy-2-methylpropan-2-yl)-2,3-dihydro-1H-pyrido[2,3-b][1,4]oxazine-7-carboxamide]
EC50 (human CB1 receptor; bin in μM): 3 to 30 µM | EC50 (human CB2 receptor; EC50 bins in nM): 30 to 300 nM

CC(C)(O)CNC(=O)c1cnc2c(c1)N(S(=O)(=O)c1ccc(F)c(F)c1)CCO2 [Example 109, 1-(3,4-difluorophenylsulfonyl)-N-(2-hydroxy-2-methylpropyl)-2,3-dihydro-1H-pyrido[2,3-b][1,4]oxazine-7-carboxamide]
EC50 (human CB1 receptor; bin in μM): 3 to 30 µM | EC50 (human CB2 receptor; EC50 bins in nM): 30 to 300 nM

O=C(N[C@H]1CCC[C@@H]1O)c1cnc2c(c1)N(S(=O)(=O)c1ccc(Cl)cc1F)CCO2 [Example 111, 1-(4-chloro-2-fluorophenylsulfonyl)-N-((1S,2S)-2-hydroxycyclopentyl)-2,3-dihydro-1H-pyrido[2,3-b][1,4]oxazine-7-carboxamide]
EC50 (human CB1 receptor; bin in μM): 3 to 30 µM | EC50 (human CB2 receptor; [1]): 300 to 3000 nM

CC(C)(CN1CCOCC1)NC(=O)c1cnc2c(c1)N(S(=O)(=O)c1ccc(Cl)c(Cl)c1)CCO2 [Example 112, 1-(3,4-dichlorophenylsulfonyl)-N-(2-methyl-1-morpholinopropan-2-yl)-2,3-dihydro-1H-pyrido[2,3-b][1,4]oxazine-7-carboxamide]
EC50 (human CB1 receptor; bin in μM): 3 to 30 µM | EC50 (human CB2 receptor; [1]): 300 to 3000 nM

CN(CC(C)(C)CO)C(=O)c1cnc2c(c1)N(S(=O)(=O)c1ccc(Cl)c(Cl)c1)CCO2 [Example 121, 1-(3,4-dichlorophenylsulfonyl)-N-(3-hydroxy-2,2-dimethylpropyl)-N-methyl-2,3-dihydro-1H-pyrido[2,3-b][1,4]oxazine-7-carboxamide]
EC50 (human CB1 receptor; [1]): 0.3 to 3 µM | EC50 (human CB2 receptor; EC50 bins in nM): 30 to 300 nM

CC1(C)COCN1C(=O)c1cnc2c(c1)N(S(=O)(=O)c1ccc(Cl)c(Cl)c1)CCO2 [Example 124, (1-(3,4-dichlorophenyl-sulfonyl)-2,3-dihydro-1H-pyrido[2,3-b][1,4]oxazin-7-yl)(4,4-dimethyl-oxazolidin-3-yl)methanone]
EC50 (human CB1 receptor; [1]): 0.3 to 3 µM | EC50 (human CB2 receptor; EC50 bins in nM): 30 to 300 nM

CC(C)(CO)CNC(=O)c1cnc2c(c1)N(S(=O)(=O)c1ccc(Cl)c(Cl)c1)CCO2 [Example 131, 1-(3,4-dichlorophenyl-sulfonyl)-N-(3-hydroxy-2,2-dimethylpropyl)-2,3-dihydro-1H-pyrido[2,3-b][1,4]oxazine-7-carboxamide]
EC50 (human CB1 receptor; [1]): 0.3 to 3 µM | EC50 (human CB2 receptor; EC50 bins in nM): 30 to 300 nM

O=C(N[C@H]1CCC[C@H]1O)c1cnc2c(c1)N(S(=O)(=O)c1ccc(Cl)c(Cl)c1)CCO2 [Example 132, 1-(3,4-dichlorophenyl-sulfonyl)-N-((1S,2R)-2-hydroxycyclopentyl)-2,3-dihydro-1H-pyrido[2,3-b][1,4]oxazine-7-carboxamide]
EC50 (human CB1 receptor; [1]): 0.3 to 3 µM | EC50 (human CB2 receptor; [1]): 300 to 3000 nM

COC(=O)C(C)(C)NC(=O)c1cnc2c(c1)N(S(=O)(=O)c1ccc(Cl)c(Cl)c1)CCO2 [Example 136, methyl 2-(1-(3,4-dichlorophenylsulfonyl)-2,3-dihydro-1H-pyrido[2,3-b][1,4]oxazine-7-carboxamido)-2-methylpropanoate]
EC50 (human CB1 receptor; bin in μM): 3 to 30 µM | EC50 (human CB2 receptor; EC50 bins in nM): 30 to 300 nM

CCC(C)(C)NC(=O)c1cnc2c(c1)N(S(=O)(=O)N1CCOCC1)CCO2 [Example 142, 1-(morpholinosulfonyl)-N-tert-pentyl-2,3-dihydro-1H-pyrido[2,3-b][1,4]oxazine-7-carboxamide]
EC50 (human CB1 receptor; bin in μM): 3 to 30 µM | EC50 (human CB2 receptor; [1]): 300 to 3000 nM

CC(C)(C)NC(=O)c1cnc2c(c1)N(S(=O)(=O)N1CCCC1)CCO2 [Example 148, N-tert-butyl-1-(pyrrolidin-1-ylsulfonyl)-2,3-dihydro-1H-pyrido[2,3-b][1,4]oxazine-7-carboxamide]
EC50 (human CB1 receptor; [1]): 0.3 to 3 µM | EC50 (human CB2 receptor; [1]): 300 to 3000 nM

CC(C)(CO)NC(=O)c1cnc2c(c1)N(S(=O)(=O)N1CCCC1)CCO2 [Example 149, N-(1-hydroxy-2-methylpropan-2-yl)-1-(pyrrolidin-1-ylsulfonyl)-2,3-dihydro-1H-pyrido[2,3-b][1,4]oxazine-7-carboxamide]
EC50 (human CB1 receptor; bin in μM): 3 to 30 µM | EC50 (human CB2 receptor; [1]): 300 to 3000 nM

CC(C)(C)NC(=O)c1cnc2c(c1)N(S(=O)(=O)N1CCC(C(F)(F)F)CC1)CCO2 [Example 150, N-tert-butyl-1-(4-(trifluoromethyl)piperidin-1-ylsulfonyl)-2,3-dihydro-1H-pyrido[2,3-b][1,4]oxazine-7-carboxamide]
EC50 (human CB1 receptor; [1]): 0.3 to 3 µM | EC50 (human CB2 receptor; EC50 bins in nM): 30 to 300 nM

CC(C)(CO)NC(=O)c1cnc2c(c1)N(S(=O)(=O)N1CCC(C(F)(F)F)CC1)CCO2 [Example 152, N-(1-hydroxy-2-methylpropan-2-yl)-1-(4-(trifluoromethyl)piperidin-1-ylsulfonyl)-2,3-dihydro-1H-pyrido[2,3-b][1,4]oxazine-7-carboxamide]
EC50 (human CB1 receptor; [1]): 0.3 to 3 µM | EC50 (human CB2 receptor; EC50 bins in nM): 30 to 300 nM

CC(C)(C)c1cc(NC(=O)c2cnc3c(c2)N(S(=O)(=O)N2CCC(C(F)(F)F)CC2)CCO3)no1 [Example 154, N-(5-tert-butylisoxazol-3-yl)-1-(4-(trifluoromethyl)piperidin-1-ylsulfonyl)-2,3-dihydro-1H-pyrido[2,3-b][1,4]oxazine-7-carboxamide]
EC50 (human CB1 receptor; [1]): 0.3 to 3 µM | EC50 (human CB2 receptor; EC50 bins in nM): 30 to 300 nM

CC(C)(CO)CNC(=O)c1cnc2c(c1)N(S(=O)(=O)N1CCC(C(F)(F)F)CC1)CCO2 [Example 155, N-(3-hydroxy-2,2-dimethylpropyl)-1-(4-(trifluoromethyl)piperidin-1-ylsulfonyl)-2,3-dihydro-1H-pyrido[2,3-b][1,4]oxazine-7-carboxamide]
EC50 (human CB1 receptor; [1]): 0.3 to 3 µM | EC50 (human CB2 receptor; EC50 bins in nM): 30 to 300 nM

CC(C)(CO)NC(=O)c1cnc2c(c1)N(S(=O)(=O)N1CCC(F)(F)CC1)CCO2 [Example 157, 1-(4,4-difluoropiperidin-1-ylsulfonyl)-N-(1-hydroxy-2-methylpropan-2-yl)-2,3-dihydro-1H-pyrido[2,3-b][1,4]oxazine-7-carboxamide]
EC50 (human CB1 receptor; bin in μM): 3 to 30 µM | EC50 (human CB2 receptor; EC50 bins in nM): 30 to 300 nM

CC(C)(CO)CNC(=O)c1cnc2c(c1)N(S(=O)(=O)N1CCC(Cl)CC1)CCO2 [Example 187, 1-(4-chloropiperidin-1-ylsulfonyl)-N-(3-hydroxy-2,2-dimethylpropyl)-2,3-dihydro-1H-pyrido[2,3-b][1,4]oxazine-7-carboxamide]
EC50 (human CB1 receptor; [1]): 0.3 to 3 µM

CC(C)(CO)CNC(=O)c1cnc2c(c1)N(S(=O)(=O)N1CC(F)(F)C1)CCO2 [Example 196, 1-(3,3-difluoroazetidin-1-ylsulfonyl)-N-(3-hydroxy-2,2-dimethylpropyl)-2,3-dihydro-1H-pyrido[2,3-b][1,4]oxazine-7-carboxamide]
EC50 (human CB1 receptor; bin in μM): 3 to 30 µM

CC(C)(C)c1nnc(-c2cnc3c(c2)N(S(=O)(=O)c2ccc(F)cc2)CCO3)o1 [Example 212, 7-(5-tert-butyl-1,3,4-oxadiazol-2-yl)-1-(4-fluorophenylsulfonyl)-2,3-dihydro-1H-pyrido[2,3-b][1,4]oxazine]
EC50 (human CB1 receptor; [1]): 0.3 to 3 µM
